The supplement of paper PMC5949888
Most values lie at the floor of the assay. Slopes are relative: functional sequences can read slightly below zero.

system: Saccharomyces cerevisiae PS128 hsf1 delta, HSF1(1-493) fusion; assay: growth estimate (transactivation domain function in HSF1 fusion, heat-shock survival) (a.u. (slope of normalised read count over time)); higher = stronger growth at 37°C, i.e. more transactivation activity; conditions: library: random library
Description: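 Random 60-nt DNA library encoding peptides of up to 20 aa, fused to the C-terminus of yeast HSF1 residues 1-493 (C-terminal TAD deleted) and expressed from the native HSF1 promoter on a CEN plasmid in hsf1-deleted S. cerevisiae PS128. Cells were selected at 37°C on -trp 5-FOA plates for 0, 2, 4, 6 and 8 days and amplicons were sequenced. Growth estimate is the slope of a robust linear fit of total-sum-normalised read counts (normalised to the first time point) over time, using at least 2 replicates. Sequences are classed functional (TAD activity) above a threshold of -0.13, set from stop-codon control sequences.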

Substance | growth estimate
EPRRTLS | < -0.25
EPSFGTTHSPFRVRVGTFVL | < -0.25
EPSIVSPEGFQARDNYTFMR | < -0.25
EPVGPSGNIGSWARLMS | < -0.25
EPVVQLPKELARPTKIAT | -0.24
EQAGWCNRTNLRSPG | < -0.25
EQALVI | < -0.25
EQDG | -0.111
EQDLLYESLTADLNRHWGID | < -0.25
EQDVIRLSSRNCAHTAQSVA | < -0.25
EQEKWQRVIVL | -0.245
EQGCIAVYSNRRSYFEATPY | < -0.25
EQGETEIDIGIFDKAVVPGE | < -0.25
EQGHLG | < -0.25
EQIKTKSCRTEGPVRGLLPE | < -0.25
EQLPACANLISLVSTFGPRG | < -0.25
EQNI | < -0.25
EQRSDNRGDMCRIK | < -0.25
EQSRKECWVSKATAIRLVPS | < -0.25
EQVICTGAEQLVRGTARGKP | < -0.25
EQVLDALRVSAPASLIGITP | < -0.25
EQVPAGATVYRNLRFLLLLA | < -0.25
ERAITRLESVVSVEMWLCWK | < -0.25
EREWTGYLQQGACRCRGETS | < -0.25

Substance | growth estimate
ERFLPLDRS | < -0.25
ERFRDRGNVALLWVADRYDR | < -0.25
ERGARSWTPEVVLLIRSAKL | < -0.25
ERGATWECEMDVSAPSKAYA | < -0.25
ERGSTQHRIQYTTWCQTSRR | < -0.25
ERGVLELS | < -0.25
ERKMMLSDPAAVSLERRCLG | < -0.25
ERLMSGSESHLNRKSTARDP | < -0.25
ERPALSYEYYLRDFPYSFGG | 0.211
ERPERYSRVPGPEPIEYKGT | < -0.25
ERPLVVEGVD | < -0.25
ERPMACF | < -0.25
ERRFTHFARLGPLRLSAARG | < -0.25
ERRGSVGLIGSPGNTAAYDL | < -0.25
ERRIGIRASSWTLGEYNYGS | < -0.25
ERRTRNRTCSIS | < -0.25
ERTKNRVTDSDVVPLT | < -0.25
ERTPAQVHQIEQKSRFLRRI | -0.238
ERVFSLEDPYRDGPNITLWT | < -0.25
ERVQPPTFVGNNVTEDVRAL | < -0.25
ERVSVKLRWSSITVCNYHVG | < -0.25
ERVVEAASDLGDYLLFKTML | -0.0984
ERVYRMA | < -0.25
ERYGALGRYAIGVDAGCGMN | < -0.25

Substance | growth estimate
ERYPSEVAIPSRSGDLQWCG | < -0.25
ERYTSMVECARKTRSSSRTK | < -0.25
ESAELHH | < -0.25
ESAIDPETSCCVCTTEGQSY | < -0.25
ESALVKSKPITVKVWQSKTS | < -0.25
ESCI | < -0.25
ESDFL | < -0.25
ESE | < -0.25
ESECQRAAVESKIAFV | < -0.25
ESGVDSRGWSCNWRNSSS | -0.112
ESHALQGTR | < -0.25
ESHAPVIAVMAQLPQSSEPT | -0.077
ESHVRSFSAW | < -0.25
ESILFLHYSRTCVQIQCLAR | < -0.25
ESITCTVSRGGDISTYVVSS | < -0.25
ESITSNWRILVLSHRSLSSP | < -0.25
ESKIFQWSTRWWIRRAKHKL | < -0.25
ESKSHHVIADCSAIR | < -0.25
ESLIVLPTGDTPRSSK | < -0.25
ESLQSNSAVVNYTLCKSRIK | < -0.25
ESLRACMTVCSSGERQHNAC | < -0.25
ESLRCSVCRTKEYYYSILDE | -0.0126
ESLRNRGFRKEDESTRPTGP | < -0.25
ESLSVN | < -0.25

Substance | growth estimate
ESNSPGWAIV | -0.246
ESPNGVPFPGSDKVGSEEVR | < -0.25
ESPTNGVWLGLDHCYSSPSA | 0.0798
ESPV | < -0.25
ESRGDELYQACCRHVVLSLP | < -0.25
ESRGSY | < -0.25
ESRPYEAVWAFRPLEHSCLG | < -0.25
ESRTSVRLWLKPLAYQRFRR | < -0.25
ESVGRTVVVMRDA | < -0.25
ESVQTA | < -0.25
ESVRIVYVEHYQYNVLRDLV | < -0.25
ESVYWATTADIPDRH | < -0.25
ESYGSRTLSCRDFGLSMTPP | < -0.25
ETDTARPKCQNEMRTSIGAD | < -0.25
ETFILPSRAVRAAGLLHM | < -0.25
ETIEFFCRTRNVHTVLRHLF | < -0.25
ETLTRGPGTKDKSWS | < -0.25
ETLYFCFALAIERGKISRGS | < -0.25
ETPTTNPTSEHDEAGNLLNR | < -0.25
ETRGYFSLEMRLAAKNNRTF | < -0.25
ETRRFRVITARGINYARALM | -0.246
ETVNGSTIIWVC | < -0.25
ETVSQYMNSFEALKV | < -0.25
ETWDVSSSGNFA | < -0.25

Substance | growth estimate
ETYAEHHGKRNNALAK | < -0.25
ETYCGQAHRGYYDWKNPVAV | < -0.25
ETYDIRTLRGILKRTCCNPR | < -0.25
EVE | 0.522
EVESGDRWSGLCLSDLLPSV | 0.226
EVEV | < -0.25
EVGASQLKTTRIRVDNIVCL | < -0.25
EVGCPGRRG | < -0.25
EVGLCVVTCWRAHLLAGICS | < -0.25
EVGSRVS | -0.25
EVGVLVKKGGS | < -0.25
EVHGLSCRSTVREETKR | < -0.25
EVIGGPKVFH | < -0.25
EVIGVLRLDQRPHYSAFTTR | < -0.25
EVISWEQRLWEPTFAQGNAF | -0.231
EVLCTCLTGLFAREGRPLRD | < -0.25
EVLFWRDGG | < -0.25
EVLL | -0.153
EVLPVGVTIDLRLHPCRRDH | < -0.25
EVLVLSVGNLAKI | < -0.25
EVRCRCAKFPGVDRVSEYSG | < -0.25
EVRESGAPYVIPRGSR | < -0.25
EVRGAHSLTVVHPLWIDAPR | < -0.25
EVRSRDAFWLKRWNRSPRDQ | < -0.25

Exported tab-delimited: part of the list above
Substance	growth estimate
EVE	0.522
EVRCRCAKFPGVDRVSEYSG	< -0.25

Continued:

Substance | growth estimate
EVSVCEGQSGLNYGIYAPGA | < -0.25
EVSYLLNSLV | < -0.25
EVVLIVQNDDSSTLRWIRIA | -0.248
EWFREPGRRKGQAPSK | < -0.25
EWGDEGSKPQPTACPRLQFS | < -0.25
EWHHLGKDVSK | < -0.25
EWIKHVGRPPEAVPTHGLPD | < -0.25
EWIRLEGRAIVTIGIPFILY | < -0.25
EWLNHRPLDICSVALQ | -0.25
EWPGRTLKGSKLE | < -0.25
EWVEGRQLG | -0.12
EWVHVCIAL | < -0.25
EYASDQVTGR | < -0.25
EYCPGVEIRTVKHRIFILKN | < -0.25
EYHCVGEP | < -0.25
EYLSCYPQELLLNAPMRRRG | < -0.25
EYVHLVEGVFSSHYVPALRQ | < -0.25
EYYVCLQGSMDLSYATRSKT | < -0.25
FAAKWQAGFRDKLMPPIYHP | < -0.25
FADRVCVSEL | < -0.25
FAEAPGRLFTSVEVRHRQFC | < -0.25
FAEFYGRVRVGTGLDVETPA | -0.135
FAEITGRGQRMVQ | < -0.25
FAESSENTSCFNQRGAKLGL | < -0.25

5 neighbouring records out of the list so far, quoted:
Substance | growth estimate
EVSYLLNSLV | < -0.25
EVVLIVQNDDSSTLRWIRIA | -0.248
EWFREPGRRKGQAPSK | < -0.25
EWGDEGSKPQPTACPRLQFS | < -0.25
EWHHLGKDVSK | < -0.25

The listing continues:

Substance | growth estimate
FAFQGVD | < -0.25
FAGLISISVTQ | < -0.25
FAHGTFGACAAAEPSKLRVR | -0.192
FAIGAQLSDLGVRTGRHLSS | < -0.25
FALAYRHISTMTIGSIGKHK | < -0.25
FALEFIFTDFGDLSHLERNE | < -0.25
FALEVDREAAVSLGYHSWSP | < -0.25
FALRPRTKQWVRFVFRQLVE | < -0.25
FALTHKDQNGMIHVQCIP | < -0.25
FAPNHNGPILRGVHLISVQL | < -0.25
FARGVLGFSGRGSMAAIRYT | < -0.25
FARLAIPLRGTSSWNRFPAV | < -0.25
FASISLGSTLP | < -0.25
FASQRFLPVRGGTNSMWLP | < -0.25
FASSPGHALAEYRP | < -0.25
FATLVTLPS | < -0.25
FAVGGDDLQCALSGLTGSLL | < -0.25
FAVIL | < -0.25
FAYTLPGASL | < -0.25
FCGLDVLPG | < -0.25
FCGSSAVTRFQPTPGWKDRE | < -0.25
FCHSRIDFRCSVKL | < -0.25
FCHW | -0.238
FCI | < -0.25

Substance | growth estimate
FCIAGDMYSYVWEVSWDRHV | < -0.25
FCIATR | < -0.25
FCIELSCGGPLLRKHASCAS | < -0.25
FCLASGRIT | < -0.25
FCNVSFPGSARRPGLKELDG | < -0.25
FCRHHWGVP | < -0.25
FCTAGWS | < -0.25
FCTFEILVQKSNNAAPVRSS | < -0.25
FCVFEGR | < -0.25
FDCILRYSRYKDPQSTWGPA | < -0.25
FDCTVLST | < -0.25
FDD | < -0.25
FDDRSPE | < -0.25
FDFRYG | < -0.25
FDGLALVTDLRLYLGTGVSG | < -0.25
FDHSIPSHKKRTDMISGSII | < -0.25
FDIDKIASACVGGVFVPSVR | < -0.25
FDLGG | < -0.25
